# From PubChem BioAssay AID493014 (National Center for Advancing Translational Sciences (NCATS), 2011)
# Where “and” joins values, the source holds several entries; their conditions need not be identical. Equal values may be shown once. Screen size: about 340,000 compounds; about 170 (0.05%) were called active. The shares of active, inactive and inconclusive entries below differ from those in the screen. Calls follow the shape of the dose curve; as a rule, active = well fitted inhibition curve with a large enough effect in the signal ratio, with a control signal flat (not every such curve was filed as active); inconclusive = small, poorly fitted or top-dose-only effect, or effect the other way, or a change in a side signal; inactive = flat fitted curve, though single readings scatter; the % refers to the signal ratio. Potencies of inconclusive entries are doubtful fits and often do not repeat.
# Test: qHTS Assay to Find Inhibitors of Chronic Active B-Cell Receptor Signaling;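 as to activity change, negative = inhibition: plate controls were basal doxycycline-induced cells for no effect and cells given 10 µM MG132 for full effect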
# Details: ABC-DLBCL IkBa-CBG/CBR reporter, luminescence ratio (green luciferase fused to IkBa over red control in TMD8 lymphoma cells), 4 h; activity change, negative = inhibition: at 46.1 µM (top of the series)
# In short: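 Compounds up to 46 uM were incubated four hours with TMD8 cells whose green CBG68 luciferase is fused to IkappaBalpha; red CBR luminescence normalised the signal, and concentration-effect curves were fitted to fusion, red and ratio data.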
# Potency is read from the fitted curve at half-maximal effect.
SMILES,"activity change, negative = inhibition",Potency
O=C(/C=C/c1ccccc1)NC(=S)N1C[C@H]2C[C@H](C1)c1cccc(=O)n1C2,inconclusive: 1.64%,
O=C(Cc1ccccc1)Oc1ccc([N+](=O)[O-])cc1,inactive: 4.08%,
O=C1NC(=O)N(c2ccccc2F)C(=O)/C1=C/c1ccc(Sc2nc3ccccc3[nH]2)o1,inconclusive: 8.37%,
CC1CCN(CC(=O)c2ccc3c(c2)OCCO3)CC1,,"inconclusive: 22.4 µM [falling, partial curve]"
CC(C(=O)c1ccccc1)N1C(=O)c2ccccc2C1=O (stereo not given),inconclusive: 3.39%,
COc1ccc(CCC(=O)N(C)CC(=O)Nc2ccc(Cl)c(C(F)(F)F)c2)cc1,inconclusive: -4.88%,
CCCCC/C(=N\O)c1c[nH]c2ccccc12,inconclusive: 1.86%,
Cc1ccccc1-n1c(O)c(/C=N/Nc2nc3c(c(=O)n(C)c(=O)n3C)n2C)c(=O)[nH]c1=S,inconclusive: 11.3%,
C[C@]12CCC3C(CC[C@H]4C[C@@H](O)CC[C@]34C)[C@H]1C=CC2=O (stereo not given in full),,"inconclusive: 18.4 µM [falling, single point]"
Cc1cc(Cl)ccc1N=Cc1c(O)n(C)c(=O)n(C)c1=O,inconclusive: 2.69%,
CCN(CC)c1ccc(/C=N/NC(=O)c2ccoc2C)c(O)c1,,"inconclusive: 17.8 µM [falling, partial curve]"
Cc1ccc(-c2nc3ccccc3c(=O)n2-c2ccc(O)cc2)cc1,inconclusive: 8.46%,
CCCCCC(=O)N[C@@H](c1ccccc1)[C@@H](O)C(=O)O[C@H]1C[C@@]2(O)[C@@H](OC(=O)c3ccccc3)C3[C@](C)(C(=O)[C@H](O)C(=C1C)C2(C)C)[C@@H](OC1OCC(O)C(O)C1O)C[C@H]1OC[C@@]31OC(C)=O (stereo not given in full),inactive: -23.2%,
NC(Cc1nc2ccccc2[nH]1)c1ccc(Cl)cc1 (stereo not given),,"inconclusive: 25.1 µM [falling, single point]"
COc1cccc(-c2nn(Cc3ccccc3)cc2C(=O)O)c1,inconclusive: 8.39%,
CCOC(=O)C(O)(c1ccc(N)c(OC)c1)C(F)(F)F (stereo not given),,"inconclusive: 28.2 µM [falling, single point]"
C[C@@H]1O[C@@H](O[C@H]2C[C@@H](O)[C@]3(CO)[C@H]4[C@H](O)C[C@]5(C)[C@@H](C6=CC(=O)OC6)CC[C@]5(O)[C@@H]4CC[C@]3(O)C2)[C@H](O)[C@H](O)[C@H]1O,inconclusive: -0.849% and inconclusive: -13.2%,
CCOC(=O)c1c(C)c(C(=O)N2CCC3(CC2)OCCO3)c(C)n1CC,inconclusive: 1.1%,
O=C(c1ccc2c3c(cccc13)CC2)C1CCCN(CC2CC2)C1 (stereo not given),,"inconclusive: 11.2 µM [falling, partial curve, poor fit]"
CC(C)Oc1ccc(Cc2c(O)[nH]c(=O)[nH]c2=O)cc1,inconclusive: -3.25%,
C=CCn1c(O)c(C(C)=NCc2ccco2)c(=O)[nH]c1=O,,"inconclusive: 3.26 µM [rising, full curve, poor fit]"
O=C(O)CCn1cc(C=C2C(=O)NC(=S)NC2=O)c(-c2ccccc2)n1,inactive: -1.33%,
CC12CCC3C(CCC4C/C(=N/O)CCC43C)C1CCC2O (stereo not given),,"inconclusive: 11.6 µM [falling, partial curve]"
O=C1NC(=S)N(c2ccccc2)C(=O)/C1=C/c1ccco1,inactive: 4.52%,
Cc1ccc(-c2nc3ccc(Cl)cc3n2OC(=O)N(C)C)cc1,,"inconclusive: 8.2 µM [rising, partial curve, poor fit]"

SMILES,"activity change, negative = inhibition",Potency
Cc1cccc(N2C(=O)CC(=O)NC2=O)c1,inactive: -2.71%,
COc1cccc(-n2c(C)nc3ccccc3c2=O)c1,inactive: -0.0964%,
COC(=O)C1C=C2c3cccc4[nH]cc(c34)CC2N(C)C1 (stereo not given),inactive: 12%,
O=C1NC(=O)N(c2ccccc2F)C(=O)/C1=C/c1ccc(Oc2ccc([N+](=O)[O-])cn2)cc1,inconclusive: -23%,
Cc1ccc(Cn2nnc3c(=O)[nH]c(C4CCN(S(=O)(=O)Cc5ccccc5)CC4)nc32)cc1,inconclusive: 7.84%,
Cc1cc(/C=C2\SC(=O)N(C)C2=O)c(C)n1-c1ccc(O)cc1,,"inconclusive: 35.5 µM [falling, partial curve, poor fit]"
COc1cccc(C2C([N+](=O)[O-])=C(N)Oc3c2c(=O)oc2ccccc32)c1 (stereo not given),,"inconclusive: 1.16 µM [falling, full curve, poor fit]"
CCC(C)c1ccc(NC(=O)Nc2cccnc2)cc1 (stereo not given),inconclusive: 2.03%,
Fc1ccc(C2=CCN(C(c3cccs3)c3nnnn3CCc3ccccc3)CC2)cc1 (stereo not given),,"inconclusive: 5.8 µM [rising, partial curve]"
COc1ccc(/C=C/C2=CCN(C)CC2)cc1,,"inconclusive: 15.8 µM [rising, partial curve, poor fit]"
CC1CC(OP(O)(=S)c2ccc(N(C)C)cc2NC(=O)c2cccs2)CC(C)(C)C1 (stereo not given),inconclusive: 4.77%,
COc1ccc(C(=O)CN2CCOCC2)cc1F,,"inconclusive: 15.8 µM [falling, single point]"
CCN(CC)c1ccc(/C=C/[N+](=O)[O-])cc1,inactive: -10.7%,
O=C(CN1CCCCC1)c1cccc(Br)c1,,"inconclusive: 18.4 µM [falling, partial curve]"
O=c1c2ccccc2nc(/C=C/c2ccccc2)n1-c1ccc(O)cc1,,"inconclusive: 7.08 µM [falling, partial curve, poor fit]"
O=C(O)CCn1cc(C=C2C(=O)NC(=S)NC2=O)c(-c2cc3ccccc3oc2=O)n1,inactive: 9.84%,
C=CCn1c(O)c(C(CC)=NCCc2c[nH]c3ccccc23)c(=O)[nH]c1=O,inconclusive: 1.77%,
Cc1ccsc1C(=O)C1CCCN(Cc2cc(C(C)C)n[nH]2)C1 (stereo not given),inactive: -8.72%,
O=C(CSC1c2ccccc2-c2ccccc21)N/N=C/c1ccc(C(=O)O)cc1,,"inconclusive: 14.1 µM [falling, partial curve]"
CCN(CC)CCNCC(=O)Nc1ccc(Cl)cc1C(=O)c1ccccc1,inactive: 8.88%,
COc1ccc2[nH]c3c(c2c1)CCN[C@H]3C,inconclusive: -2.87%,
O=C(Oc1ccc(Cl)cc1)N1CCOCC1,inconclusive: 10.4%,
CCC(=Nc1ccc2c(c1)CCC2)c1c(O)n(-c2ccc(OC)cc2)c(=O)[nH]c1=O,inconclusive: 2.43%,
Cc1ccccc1CN1C(=O)C(C)N=C(c2ccccc2)c2ccccc21 (stereo not given),inactive: 10.6%,
Nc1c2c(nc3sc4c(c13)CCCC4)CCCC2,inconclusive: -14%,

SMILES,"activity change, negative = inhibition",Potency
Fc1ccc(C(OCCN2CCCC2)c2ccc(Br)cc2)cc1 (stereo not given),,"inconclusive: 4.47 µM [falling, partial curve, poor fit]"
CC1CN(CC(=O)c2ccccc2Cl)CC(C)O1 (stereo not given),inconclusive: -19.7%,
CCc1ccc(N2C(=O)NC(=O)C(CCc3ccncc3)(CCc3ccncc3)C2=O)cc1,inactive: 3.49%,
NC(=O)c1cn(C2OC(CO)C(O)C2O)c2ncnc(N)c12 (stereo not given),inconclusive: 10.3%,
Cn1c(O)c(/C=C2\C=c3ccccc3=NC2=O)c(=O)n(C)c1=O,inconclusive: -2.22%,
Fc1ccccc1CCNCc1cccc(Cl)c1Cl,inconclusive: 23.5%,
Cc1c(NP(=O)(C(C)(C)C)C(C)(C)C)c(=O)n(-c2ccccc2)n1C,inconclusive: 7.33%,
COc1ccc2c3c1OC1C(O)C=CC4C(C2)[N+](C)(C)CCC341 (stereo not given),inactive: 1.24%,
O=C1NC(=O)C(=Cc2cccc(OCCOc3ccccc3)c2)C(=O)N1,,"inconclusive: 25.1 µM [falling, single point]"
COCCN1Cc2cc(=O)n3c([nH]c4ccccc43)c2C1=N,inconclusive: 12.8%,
CCOc1ccccc1NC(=O)Cn1c(=O)oc2ccccc21,,"inconclusive: 25.1 µM [falling, single point]"
Cc1c(CCC(=O)O)c(=O)oc2cc3oc4c(c3cc12)CCCC4,,"inconclusive: 2.82 µM [falling, full curve]"
COc1ccc(-c2cc(C(=O)NCc3cccnc3)no2)cc1OC,,"inconclusive: 17.8 µM [falling, partial curve]"
O=C(c1ccccc1)C(CN1CCCC1)c1ccccc1 (stereo not given),,"inconclusive: 5.8 µM [falling, single point]"
COc1ccc(/C=C2\C(=O)NC(=O)N(Cc3ccccc3)C2=O)c(OC)c1OC,inconclusive: -5.9%,
Cc1ccc(S(=O)(=O)c2ncccc2[N+](=O)[O-])cc1,,"inconclusive: 3.98 µM [falling, single point]"
CCN(CC)C(=O)c1ccc(NC(=O)COc2ccc([N+](=O)[O-])cc2Cl)cc1,inactive: -0.119%,
Cc1cc(O)c2c3c(c(=O)oc2c1)CCC(C)C3 (stereo not given),inconclusive: 0.92%,
O=C1NC(=O)C(=Cc2ccc3ccccc3c2)C(=O)N1,inactive: -6.72%,
CC(=O)N(C1=NCCCS1)c1ccc(Cl)cc1,,"inconclusive: 14.1 µM [falling, single point]"
COC1CC(OC2CCC3(C)C(CCC4C3CCC3(C)C(C5=CC(=O)OC5)C(OC(C)=O)CC43O)C2)OC(C)C1OC1OC(COC2OC(CO)C(O)C(O)C2O)C(O)C(O)C1O (stereo not given),inconclusive: -0.92%,
C=CCn1c(O)c(C(C)=NCCC2=CCCCC2)c(=O)[nH]c1=O,,"inconclusive: 1.46 µM [rising, partial curve]"
COCCN(CCOC)C(=O)CCn1c(=O)oc2ccccc21,,"inconclusive: 20.6 µM [rising, partial curve, poor fit]"
Nc1c(Cl)cc([N+](=O)[O-])cc1Cl,inconclusive: 1.3%,
Cc1cc(NC(=O)COC(=O)c2c(C)nn(Cc3ccccc3)c2C)no1,inactive: -22.7%,

# Part of the list above in order of formula weight, low to high.
SMILES,"activity change, negative = inhibition",Potency
COc1cccc(-n2c(C)nc3ccccc3c2=O)c1,inactive: -0.0964%,
C=CCn1c(O)c(C(C)=NCc2ccco2)c(=O)[nH]c1=O,,"inconclusive: 3.26 µM [rising, full curve, poor fit]"
Cc1cc(/C=C2\SC(=O)N(C)C2=O)c(C)n1-c1ccc(O)cc1,,"inconclusive: 35.5 µM [falling, partial curve, poor fit]"
COc1ccc(-c2cc(C(=O)NCc3cccnc3)no2)cc1OC,,"inconclusive: 17.8 µM [falling, partial curve]"
Cc1c(NP(=O)(C(C)(C)C)C(C)(C)C)c(=O)n(-c2ccccc2)n1C,inconclusive: 7.33%,
Cc1cc(NC(=O)COC(=O)c2c(C)nn(Cc3ccccc3)c2C)no1,inactive: -22.7%,
